Experimental data taken from publication doi:10.1101/2024.02.19.580884 (bioRxiv, 2024).
No constants are given. Whether binding was seen depends on the method and setting. Sequences can lack the tags named with a protein.

Biological target: T1, GST-tagged RfaA (Bacillus subtilis 168) (UniProt P54519)
T1 sequence: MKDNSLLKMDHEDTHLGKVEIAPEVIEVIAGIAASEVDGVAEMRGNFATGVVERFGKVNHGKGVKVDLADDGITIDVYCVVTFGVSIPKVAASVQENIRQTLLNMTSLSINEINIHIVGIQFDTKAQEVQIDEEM
Assay: pull-down

In the case of 6xHis-CcpC, the binding is reported as “no binding (tested: 0.1 mg)”.
